Results deposited as PubChem BioAssay AID1259405 (NCATS, 2018).
This is one part, drawn at random, of about 50,000 reagents. About 4,000 of all reagents (8%) were called active. 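Mouse siRNA library applied to hamster cells; one well for each siRNA.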 The numbers tell different reagents against one gene apart. Reagent sequences are not shown.

Screen: 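Knock-downs that lift recombinant protein yield in hamster ovary cells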 (primary screen)
Cell system: Chinese hamster CHO-K1 ovary cells with stable secreted eGFP expression
Reagents: single siRNA against mouse genes, 0.8 pmol siRNA per well (2 µl of 400 nM stock)
Time to read-out: 3 days
Measured: 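Per-well intracellular GFP measured by laser scanning cytometry, plus viability from ATP luminescence, each relative to plate median of non-targeting control wells, in %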
Scale: GFP, % of control: higher = more GFP per well, higher productivity; viability (ATP), % of control: higher = more viable cells (more ATP)
Rule for the call: 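a knock-down is called active if GFP reaches 120% or more of non-targeting control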

Aimp1 #1 — GFP, % of control = 84.5; viability (ATP), % of control = 78.4; call = inactive
Aimp1 #2 — GFP, % of control = 73.7; viability (ATP), % of control = 54.9; call = inactive
Tlx3 (T cell leukemia, homeobox 3) #1 — GFP, % of control = 81.7; viability (ATP), % of control = 56.3; call = inactive
Tlx3 (T cell leukemia, homeobox 3) #2 — GFP, % of control = 72.3; viability (ATP), % of control = 79.3; call = inactive
1700055D18Rik (RIKEN cDNA 1700055D18 gene) #1 — GFP, % of control = 77.9; viability (ATP), % of control = 75.2; call = inactive
1700055D18Rik (RIKEN cDNA 1700055D18 gene) #2 — GFP, % of control = 72.3; viability (ATP), % of control = 46.8; call = inactive
1700055D18Rik (RIKEN cDNA 1700055D18 gene) #3 — GFP, % of control = 70.8; viability (ATP), % of control = 71.5; call = inactive
Hsd17b6 (hydroxysteroid (17-beta) dehydrogenase 6) #1 — GFP, % of control = 87.8; viability (ATP), % of control = 98.5; call = inactive
Hsd17b6 (hydroxysteroid (17-beta) dehydrogenase 6) #2 — GFP, % of control = 145; viability (ATP), % of control = 83.2; call = active
Hsd17b6 (hydroxysteroid (17-beta) dehydrogenase 6) #3 — GFP, % of control = 111; viability (ATP), % of control = 100; call = inactive
Gemin4 (gem nuclear organelle associated protein 4) #1 — GFP, % of control = 61.4; viability (ATP), % of control = 70.9; call = inactive
Gemin4 (gem nuclear organelle associated protein 4) #2 — GFP, % of control = 26.6; viability (ATP), % of control = 25.5; call = inactive
Gemin4 (gem nuclear organelle associated protein 4) #3 — GFP, % of control = 71.5; viability (ATP), % of control = 95; call = inactive
Brip1 (BRCA1 interacting protein C-terminal helicase 1) #1 — GFP, % of control = 74.8; viability (ATP), % of control = 82.1; call = inactive
Brip1 (BRCA1 interacting protein C-terminal helicase 1) #2 — GFP, % of control = 54.3; viability (ATP), % of control = 72.5; call = inactive
Brip1 (BRCA1 interacting protein C-terminal helicase 1) #3 — GFP, % of control = 62.8; viability (ATP), % of control = 68.1; call = inactive

5 successive reagents from above, for reference:
1700055D18Rik (RIKEN cDNA 1700055D18 gene) #1 — GFP, % of control = 77.9; viability (ATP), % of control = 75.2; call = inactive
1700055D18Rik (RIKEN cDNA 1700055D18 gene) #2 — GFP, % of control = 72.3; viability (ATP), % of control = 46.8; call = inactive
1700055D18Rik (RIKEN cDNA 1700055D18 gene) #3 — GFP, % of control = 70.8; viability (ATP), % of control = 71.5; call = inactive
Hsd17b6 (hydroxysteroid (17-beta) dehydrogenase 6) #1 — GFP, % of control = 87.8; viability (ATP), % of control = 98.5; call = inactive
Hsd17b6 (hydroxysteroid (17-beta) dehydrogenase 6) #2 — GFP, % of control = 145; viability (ATP), % of control = 83.2; call = active

Further reagents:
Slc35e1 #1 — GFP, % of control = 88.4; viability (ATP), % of control = 83.5; call = inactive
Slc35e1 #2 — GFP, % of control = 30.3; viability (ATP), % of control = 22.1; call = inactive
Slc35e1 #3 — GFP, % of control = 73.1; viability (ATP), % of control = 102; call = inactive
Dntt (deoxynucleotidyltransferase, terminal) #1 — GFP, % of control = 101; viability (ATP), % of control = 55.7; call = inactive
Dntt (deoxynucleotidyltransferase, terminal) #2 — GFP, % of control = 139; viability (ATP), % of control = 100; call = active
Dntt (deoxynucleotidyltransferase, terminal) #3 — GFP, % of control = 106; viability (ATP), % of control = 46.8; call = inactive
Pkib #1 — GFP, % of control = 62.8; viability (ATP), % of control = 66.5; call = inactive
Pkib #2 — GFP, % of control = 103; viability (ATP), % of control = 94.5; call = inactive
Far2 (fatty acyl CoA reductase 2) #1 — GFP, % of control = 77.2; viability (ATP), % of control = 117; call = inactive
Far2 (fatty acyl CoA reductase 2) #2 — GFP, % of control = 75.2; viability (ATP), % of control = 92.1; call = inactive
Far2 (fatty acyl CoA reductase 2) #3 — GFP, % of control = 56.8; viability (ATP), % of control = 53.1; call = inactive
Tfap2e (transcription factor AP-2, epsilon) #1 — GFP, % of control = 59.1; viability (ATP), % of control = 55.8; call = inactive
Tfap2e (transcription factor AP-2, epsilon) #2 — GFP, % of control = 59.7; viability (ATP), % of control = 59.3; call = inactive
Tfap2e (transcription factor AP-2, epsilon) #3 — GFP, % of control = 73.3; viability (ATP), % of control = 87.7; call = inactive
Unc119 (unc-119 lipid binding chaperone) #1 — GFP, % of control = 118; viability (ATP), % of control = 116; call = inactive
Unc119 (unc-119 lipid binding chaperone) #2 — GFP, % of control = 84.1; viability (ATP), % of control = 91; call = inactive
Unc119 (unc-119 lipid binding chaperone) #3 — GFP, % of control = 85.7; viability (ATP), % of control = 75.3; call = inactive
Inpp5j (inositol polyphosphate 5-phosphatase J) #1 — GFP, % of control = 92.2; viability (ATP), % of control = 78.9; call = inactive
Inpp5j (inositol polyphosphate 5-phosphatase J) #2 — GFP, % of control = 75.3; viability (ATP), % of control = 67.8; call = inactive
Inpp5j (inositol polyphosphate 5-phosphatase J) #3 — GFP, % of control = 86.8; viability (ATP), % of control = 93.5; call = inactive
Ltv1 (LTV1 ribosome biogenesis factor) #1 — GFP, % of control = 80; viability (ATP), % of control = 59.7; call = inactive
Ltv1 (LTV1 ribosome biogenesis factor) #2 — GFP, % of control = 90.4; viability (ATP), % of control = 79.6; call = inactive
Ltv1 (LTV1 ribosome biogenesis factor) #3 — GFP, % of control = 76.9; viability (ATP), % of control = 69.7; call = inactive
Klc3 (kinesin light chain 3) #1 — GFP, % of control = 68.9; viability (ATP), % of control = 73.9; call = inactive
Klc3 (kinesin light chain 3) #2 — GFP, % of control = 74.9; viability (ATP), % of control = 65.3; call = inactive
Klc3 (kinesin light chain 3) #3 — GFP, % of control = 129; viability (ATP), % of control = 84.4; call = active
